From PMC8593051 come the findings set out here.

This test addresses T1, WDR63 (endogenous, mouse testicular extracts) (mouse (endogenous in testis)) (UniProt B2RY71).
T1 sequence: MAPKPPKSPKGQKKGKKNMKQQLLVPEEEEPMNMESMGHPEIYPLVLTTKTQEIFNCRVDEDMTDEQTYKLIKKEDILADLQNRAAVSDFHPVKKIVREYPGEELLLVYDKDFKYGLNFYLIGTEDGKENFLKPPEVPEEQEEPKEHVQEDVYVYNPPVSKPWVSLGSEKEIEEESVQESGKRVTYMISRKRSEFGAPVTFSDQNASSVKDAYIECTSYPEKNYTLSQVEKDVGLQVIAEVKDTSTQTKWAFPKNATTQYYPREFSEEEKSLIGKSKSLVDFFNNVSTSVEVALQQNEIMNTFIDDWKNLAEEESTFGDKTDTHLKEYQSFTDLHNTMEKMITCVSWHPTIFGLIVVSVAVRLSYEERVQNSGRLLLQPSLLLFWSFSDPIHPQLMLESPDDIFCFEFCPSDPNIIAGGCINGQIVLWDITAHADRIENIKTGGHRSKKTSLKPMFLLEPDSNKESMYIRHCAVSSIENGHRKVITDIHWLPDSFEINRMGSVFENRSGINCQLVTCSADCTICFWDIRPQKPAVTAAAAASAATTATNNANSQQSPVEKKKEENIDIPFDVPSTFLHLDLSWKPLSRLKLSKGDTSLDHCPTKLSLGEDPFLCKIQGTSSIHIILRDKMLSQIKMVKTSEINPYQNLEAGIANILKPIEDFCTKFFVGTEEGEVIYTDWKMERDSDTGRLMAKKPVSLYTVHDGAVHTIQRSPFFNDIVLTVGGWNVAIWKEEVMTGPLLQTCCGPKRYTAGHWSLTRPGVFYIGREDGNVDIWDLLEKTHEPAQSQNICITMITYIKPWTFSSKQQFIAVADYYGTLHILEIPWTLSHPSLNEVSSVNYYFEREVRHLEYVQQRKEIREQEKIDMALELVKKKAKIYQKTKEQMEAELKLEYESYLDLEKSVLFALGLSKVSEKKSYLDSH
As to the kind of experiment: co-IP; co-IP followed by immunoblotting for DNAH2 and DNAH10 (Supplementary Fig. S5d); sample and precipitating antibody not given.

No constants are given. Whether binding was seen depends on the method and setting. In cells and extracts the contact can be indirect.

Take DNAH10: the binding result is “no binding”.
